The target in the assay is T1, full-length CD95 (membrane wild-type CD95) expressed in CEM-IRC cells, P25445.
T1 chain: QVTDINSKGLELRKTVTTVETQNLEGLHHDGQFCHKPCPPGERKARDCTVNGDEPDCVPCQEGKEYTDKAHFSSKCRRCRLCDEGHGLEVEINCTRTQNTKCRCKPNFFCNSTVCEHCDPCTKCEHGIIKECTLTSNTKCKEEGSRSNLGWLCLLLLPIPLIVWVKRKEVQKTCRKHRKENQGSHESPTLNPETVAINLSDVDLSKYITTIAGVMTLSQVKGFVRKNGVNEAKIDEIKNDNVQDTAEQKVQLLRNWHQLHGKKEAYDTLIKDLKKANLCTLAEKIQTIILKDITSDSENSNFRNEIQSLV
Briefly: co-IP; CEM-IRC clones treated with 100 ng/ml IgCD95L for the indicated times at 37 °C, lysed in HEPES-Triton X-100 buffer; CD95 DISC immunoprecipitated with APO1-3 and protein A-Sepharose; FADD and caspase-8 by immunoblot. The conditions noted are these: remark: other sources report otherwise.

These are yes or no findings as the source states them, for the method shown. Binding seen in cells or lysates may run through a third protein. Some binding calls cover weakened binding; strength is not graded here.

B1: caspase-8, Q14790 1-479 (enzyme)
chain: MDFSRNLYDIGEQLDSEDLASLKFLSLDYIPQRKQEPIKDALMLFQRLQEKRMLEESNLSFLKELLFRINRLDLLITYLNTRKEEMERELQTPGRAQISAYRVMLYQISEEVSRSELRSFKFLLQEEISKCKLDDDMNLLDIFIEMEKRVILGEGKLDILKRVCAQINKSLLKIINDYEEFSKERSSSLEGSPDEFSNGEELCGVMTISDSPREQDSESQTLDKVYQMKSKPRGYCLIINNHNFAKAREKVPKLHSIRDRNGTHLDAGALTTTFEELHFEIKPHDDCTVEQIYEILKIYQLMDHSNMDCFICCILSHGDKGIIYGTDGQEAPIYELTSQFTGLKCPSLAGKPKVFFIQACQGDNYQKGIPVETDSEEQPYLEMDLSSPQTRYIPDEADFLLGMATVNNCVSYRNPAEGTWYIQSLCQSLRERCPRGDDILTILTEVNYEVSNKDDKKNMGKQMPQPTFTLRKKLVFPSD
Consider B1, for which the binding result is on record as “binds”.

B2: Fas-associated death domain (FADD) protein, Q13158 1-208 (protein)
chain: MDPFLVLLHSVSSSLSSSELTELKFLCLGRVGKRKLERVQSGLDLFSMLLEQNDLEPGHTELLRELLASLRRHDLLRRVDDFEAGAAAGAAPGEEDLCAAFNVICDNVGKDWRRLARQLKVSDTKIDSIEDRYPRNLTERVRESLRIWKNTEKENATVAHLVGALRSCQMNLVADLVQEVQQARDLQNRSGAMSPMSWNSDASTSEAS
In the case of B2, the binding result is reported as “binds”.

These data come from publication PMC9588774.
